Data published in publication PMC4790305, “An FDA-Drug Library Screen for Compounds with Bioactivities against Meticillin-Resistant Staphylococcus aureus (MRSA)” (Antibiotics, 2015).

Test system: Adult normal human epidermal keratinocytes (NHEK)
Assay: Human epidermal keratinocyte viability (GI50) assay
Type: cell-based
Protocol: Adult normal human epidermal keratinocytes (NHEK) were purchased from Lonza (catalog #00192627, Basel, Switzerland) and cultured in keratinocyte growth medium (Lonza KGM-Gold Bullet Kit) containing growth supplements (Lonza Reagent Pack) at 5% CO2 (37 °C). The cell viability assay was performed using the CellTiter-Glo Luminescent Cell Viability Assay protocol from Promega (www.promega.com, Fitchburg, WI, USA). Briefly, NHEK were treated with test compounds in keratinocyte growth medium in 96-well plates (Thermo Scientific Nunclon Delta, Waltham, MA, USA). Treated cells were incubated for 5 days at 5% CO2 (37 °C). Promega CellTiter-Glo Reagent was added and plates were shaken on an orbital shaker for […]. Next, well contents (100 μL) from each well were transferred into opaque 96-well plates (PerkinElmer OptiPlate-96) and luminescence measured by a microplate reader (Tecan Safire2).

Compound | fold difference of keratinocyte GI50 compared to MIC against MRSA | fold difference of keratinocyte GI50 compared to MIC against MRSA (GI50 vs MIC (5-Fluorouracil: MIC 6.25 μM; Gemcitabine: MRSA USA300 MIC 0.05 μM)) [fold]
O=c1[nH]cc(F)c(=O)[nH]1 [5-fluorouracil, 5-Fluorouracil] | five-fold | –
Nc1ccn([C@@H]2O[C@H](CO)[C@@H](O)C2(F)F)c(=O)n1 [Gemcitabine] | – | ~40

Read-outs that look alike come from different tables or passages of the source.
